This is one part of the list. These are further read-outs of the screen, such as a control signal, another cell line or another target. No call is given for them. The list favours compounds with an active or inconclusive main result. Potencies come from curve fits of mixed quality, noted in brackets.
Assay: qHTS Assay for Lipid Storage Modulators in Drosophila S3 Cells;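 as to cell number change: cells counted by Cell Tracker Red CMTPX staining in the red channel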
Conditions: BODIPY lipid droplet fluorescence, 18-24 h; for cell number change: measured here: cell count max response, cells fed with added oleic acid
How it was run: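 Drosophila S3 cells loaded with oleic acid (400 uM, as added) and compounds at several concentrations; lipid droplets imaged by 488-nm laser-scanning cytometry, 500–530 nm intensity and object ratio to cell channel. Percent activity normalized to 20 uM Triacsin C.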

[1] = measured here: cell number channel AC50, cells fed with added oleic acid
[2] = measured here: lipid fluorescence (Fed channel) AC50, cells fed with added oleic acid

Cc1[nH]n(C(N)=S)c(=O)c1N=Nc1cc(-c2ccc(Br)cc2)[nH]n1
cell number change: -33.2%

O=C(c1cc2nc(-c3cccs3)cc(C(F)(F)Cl)n2n1)N1CCCc2ccccc21
AC50 [1]: 2.31 µM [rising, partial curve] | AC50 [2]: 0.92 µM [rising, partial curve]

COc1ccc(Br)c(C(=O)Nc2cccc(S(=O)(=O)N3CCOCC3)c2)c1
cell number change: -6.65% | AC50 [2]: 3.26 µM [falling, full curve, poor fit]

Cc1cc(OC(=O)c2cc([N+](=O)[O-])ccc2Cl)c([N+](=O)[O-])c(=O)[nH]1
cell number change: 24.9%

O=C(NCc1ccc(Cl)cc1)c1cc(-c2cccs2)on1
cell number change: -16.9% | AC50 [1]: 0.651 µM [falling, full curve, poor fit] | AC50 [2]: 0.651 µM [falling, partial curve, poor fit]

COc1cccc(N2CCN(C(=O)C3CCCN(c4ncnc5c4nc4n5CCCCC4)C3)CC2)c1 (configuration not stated)
cell number change: -13.1% | AC50 [1]: 0.326 µM [falling, partial curve, poor fit]

COc1ccc(CN(C(=O)c2ccc(C)cc2)c2cccc(N)c2)cc1
cell number change: -11.6% | AC50 [2]: 7.31 µM [rising, partial curve, poor fit]

CC(=O)NS(=O)(=O)c1ccc(NC(=O)c2ccc(-n3nc(C)cc3C)cc2)cc1
cell number change: -11%

COc1cccc(-n2c(=S)sc3c(=O)n(-c4ccccc4C)c(SCC(=O)O)nc32)c1
cell number change: 61.3% | AC50 [1]: 0.092 µM [rising, full curve] | AC50 [2]: 5.8 µM [rising, full curve]

O=C(O)C1CCCN1c1nc(C(F)(F)F)nc2ccccc12 (configuration not stated)
cell number change: -7.34%

CC(=O)Nc1ccc(NC(=O)CSc2nc3[nH]ncc3c(=O)n2-c2ccccc2)cc1
cell number change: 7.08% | AC50 [2]: 29.1 µM [rising, single point]

CC(C)NC(=O)NC(=O)COC(=O)c1c2c(nc3ccccc13)CCC2
cell number change: 25.6%

CC(C)c1ccc(/C=C/C(=O)N2CCOCC2)cc1
cell number change: 47% | AC50 [1]: 29.1 µM [rising, single point]

O=C(NC(=S)NC(CO)Cc1ccccc1)c1ccc(F)cc1 (configuration not stated)
cell number change: -23.8% | AC50 [2]: 35.5 µM [falling, single point]

COc1ccc2nc(SCC(=O)N3CC(=O)Nc4ccccc43)c(C#N)cc2c1
cell number change: -4.01% | AC50 [1]: 3.26 µM [rising, partial curve] | AC50 [2]: 1.84 µM [rising, partial curve]

O=c1c2ccccc2cnn1Cc1n[nH]c(=S)n1-c1ccc(F)c(Cl)c1
cell number change: 14.5%

CC(=O)c1cccc(NC(=O)c2ccc(CN3CCc4ccccc4C3)cc2)c1
cell number change: -19.9% | AC50 [2]: 0.651 µM [falling, partial curve, poor fit]

CC(=O)c1cccc(S(=O)(=O)N2CCCC(c3nc4c(nnn4Cc4cccc(Cl)c4)c(=O)[nH]3)C2)c1 (configuration not stated)
cell number change: 7.26%

COc1ccc2cc3cc(C(=O)Nc4cc(OC)c(OC)c(OC)c4)oc3nc2c1
cell number change: 68.9% | AC50 [1]: 5.8 µM [rising, full curve]

CCC(c1c(C)n(C)n(-c2ccccc2)c1=O)c1c(C)n(C)n(-c2ccccc2)c1=O
cell number change: -14.4%

CCN(C(=O)CSc1nnc(-c2ccccc2)o1)c1c(N)n(Cc2ccccc2)c(=O)[nH]c1=O
cell number change: -24.2% | AC50 [2]: 29.1 µM [falling, partial curve]

CCCCN(CCCC)C(=O)C[n+]1cccc(/C=N/O)c1
cell number change: -12.4% | AC50 [2]: 0.00461 µM [falling, full curve]

COc1ccc(C(=O)Nc2ccc3c(c2)nc(CCNC(C)=O)n3C)cc1
cell number change: 21.5%

NC(=O)CSc1nnc(Cn2c(=O)sc3ccccc32)n1-c1cccc(Cl)c1
cell number change: 2.1% | AC50 [2]: 4.61 µM [rising, single point]

NS(=O)(=O)c1ccc(CCNC(=S)Nc2ccc(S(N)(=O)=O)cc2)cc1
cell number change: -22.9% | AC50 [2]: 0.0517 µM [falling, full curve]

CCC(C)(C)NC(=O)C(c1ccc(F)cc1)N(Cc1ccco1)C(=O)c1cnccn1 (configuration not stated)
cell number change: 13.6% | AC50 [2]: 18.4 µM [rising, single point]

CCCCCn1c(=O)[nH]c2cc(C(=O)NCCCN3CCCCC3C)ccc2c1=O (configuration not stated)
cell number change: -11.4% | AC50 [2]: 6.51 µM [falling, single point]

O=C(Cc1nnc(NC(=O)c2ccccc2)s1)N/N=C/c1ccc(O)cc1
cell number change: 5.96% | AC50 [2]: 29.1 µM [rising, single point]

CCCCNc1c(-c2ccc(SC(C)CC)cc2)nc2ccccn12 (configuration not stated)
AC50 [2]: 0.103 µM [falling, full curve, poor fit]

O=C1COc2ccc(C(=O)COC(=O)c3sc4ccccc4c3Cl)cc2N1
cell number change: -4.16% | AC50 [2]: 2.91 µM [rising, single point]

CCN(CC)CCCC(C)NC1=NCCCCC1 (configuration not stated)
cell number change: -0.315% | AC50 [2]: 29.1 µM [falling, single point]

Cc1ccc(S(=O)(=O)N2CCCCC2)cc1NC(=O)C1CCC1
cell number change: 2.05% | AC50 [2]: 0.082 µM [falling, full curve, poor fit]

O=C(NC(=S)Nn1cnnc1)c1ccccc1
cell number change: -2.05% | AC50 [2]: 29.1 µM [rising, single point]

O=C(CNCCN1CCOCC1)Nc1ccccc1Sc1ccccc1
cell number change: 53.8% | AC50 [1]: 23.1 µM [rising, single point]

COc1cccc(NC(=O)c2ccc(OC(F)(F)F)cc2)c1
cell number change: 4.49% | AC50 [1]: 6.51 µM [falling, single point] | AC50 [2]: 3.26 µM [falling, single point]

Cc1ccc(NS(=O)(=O)c2cc(Br)cnc2N)cc1C
cell number change: -13.7%

O=C(CSc1nnc(CNC(=O)c2ccco2)o1)Nc1ccccc1C(F)(F)F
cell number change: 17.8%

COc1cc(/C=N\NC(=O)CN2CCOCC2)ccc1OCC(=O)Nc1ccc(C)c(C)c1
cell number change: 20.1% | AC50 [2]: 0.0651 µM [rising, full curve, poor fit]

COc1ccc(C2=CC(=O)C[C@H](c3ccc(F)cc3)C2)c(OC)c1
cell number change: -14.5% | AC50 [1]: 1.16 µM [falling, single point]

Cn1cc(C(=O)c2cccc(Cl)c2)cc1C#N
cell number change: 5.43% | AC50 [1]: 0.651 µM [falling, single point]
